Laboratory results as given in patent CN113717287A.
No constants are given. Whether binding was seen depends on the method and setting. Some binding calls cover weakened binding; strength is not graded here.

Chains of the proteins cited; added tags and fusions are not shown. Residues count along the entry.
UniProt P01137, residues 279-390: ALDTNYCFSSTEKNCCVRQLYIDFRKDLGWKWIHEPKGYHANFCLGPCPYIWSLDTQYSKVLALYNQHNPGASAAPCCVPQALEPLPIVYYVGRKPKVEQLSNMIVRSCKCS

Target: TGF-β1重组蛋白(义翘神州) (UniProt P01137)
Assay: ELISA, TGF-β coated 0.5 μg/mL, HRP goat anti-human detection; reference sample

binding: binds
Substance: M7824 (from UniProt P0DOX8 1-216)
